Measured values from PubChem BioAssay AID504467 (National Center for Advancing Translational Sciences (NCATS), 2011).
Screen size: about 330,000 compounds; about 7,700 (2.3%) were called active. Inconclusive results, whose numbers are uncertain, are shown with a selection of clear calls. Calls come from the whole dose curve; as a rule, active = well fitted inhibition curve with a large enough effect; inconclusive = small, poorly fitted or top-dose-only effect, or effect the other way; inactive = flat fitted curve, though single readings scatter. A potency beside an inconclusive call is a rough fit, not a confirmed value.

Assay: qHTS screen for small molecules that inhibit ELG1-dependent DNA repair in human embryonic kidney (HEK293T) cells expressing luciferase-tagged ELG1; note: nearly all actives have a fitted effect of over 55% in size
Conditions: HEK293T ELG1-luciferase reporter, luminescence, 16 h, DNA damage induced by 5-fluorouridine; series mostly up to 46.1 µM
How it was run: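 Cells (2,000 per well) received 5-fluorouridine plus test compound or DMSO and were incubated 16 hr at 37 °C, 5% CO2. Luciferase activity was read by luminescence 30 min after ONE-Glo addition; signal suppression marked inhibition of damage-induced ELG1 function.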
Potency is the fitted concentration of half-maximal effect.

SMILES | Potency
O=C(NNC(=O)C(c1ccccc1)c1ccccc1)c1cccs1 | inactive
Cc1noc(C)c1CSc1nc2ccccc2n1CCc1ccccc1 | inactive
O=C(NC1CC1)C1CC(=O)N(c2cccc(Cl)c2Cl)C1 (centres undefined) | inconclusive: 23.1 µM [inhibitor, single point]
CCCCCn1c(=O)[nH]c2cc(C(=O)N3CCN(c4ccc(C(C)=O)cc4)CC3)ccc2c1=O | active: 5.8 µM
CC(=O)N1CCc2cc(S(=O)(=O)CCC(=O)Nc3ccccc3F)ccc21 | inactive
COc1cc(N)n(S(=O)(=O)c2ccc(C)cc2)n1 | inconclusive: 16.4 µM [activator, partial curve]
O=C(NCCC1=CCCCC1)c1c(O)nc2sccn2c1=O | inconclusive: 8.2 µM [activator, single point]
CC(=O)N1N=C(c2ccccc2)CC1c1ccccc1[N+](=O)[O-] (centres undefined) | inconclusive: 18.4 µM [activator, partial curve, poor fit]
Cc1ccc(S(=O)(=O)N(CC(=O)Nc2ccc(Cl)c([N+](=O)[O-])c2)C2CCCCC2)cc1 | inconclusive: 14.6 µM [inhibitor, partial curve]
O=C(Nc1ccccc1C(=O)NCCc1ccccc1)c1ccco1 | inconclusive: 10.3 µM [activator, partial curve, poor fit]
Cn1c(SCC(=O)NC(=O)NCc2ccccc2)nnc1C(F)(F)F | inactive
CC1SC(=Nc2ccccc2)N(S(=O)(=O)c2ccccc2)C1=O (centres undefined) | inactive
COc1ccc(OC)c(/C=N/NC(=O)C(=O)N2CCCC2)c1 | inactive
COc1ccc(N(C(=O)C2COc3ccccc3O2)C(C(=O)NC2CCCCC2)c2ccccc2)cc1OC (centres undefined) | inactive
COc1ccc(/C=C2\SC(=S)N(CCC(=O)Nc3ccccc3C(=O)O)C2=O)cc1 | inactive
O=C1Nc2ccc(S(=O)(=O)NCCC3=CCCCC3)c3cccc1c23 | inconclusive: 16.4 µM [inhibitor, partial curve, poor fit]
NC(=NCCc1c[nH]c2ccccc12)NC(=O)c1ccc(Cl)cc1 | inconclusive: 13 µM [activator, partial curve, poor fit]
CC(O)c1nc2ccccc2n1CC(=O)N1CCN(c2ccccc2)CC1 (centres undefined) | inactive
COc1cc2c(cc1OC)CN(C(=O)C1CCCN1S(=O)(=O)c1ccc(C)cc1)CC2 (centres undefined) | inconclusive: 7.3 µM [inhibitor, partial curve, poor fit]
Oc1cccc2c(NC(=S)Nc3ccc(SC(F)F)cc3)cccc12 | inactive
O=c1[nH]c(-c2ccc(Cl)cc2)cs1 | inconclusive: 18.3 µM [activator, partial curve]
CCN(CC)c1ccc2c(C)c(Cl)c(=O)oc2c1 | inconclusive: 13 µM [activator, single point]
OC(CN1CCN(Cc2ccc3c(c2)OCO3)CC1)c1c[nH]c2ccccc12 (centres undefined) | active: 13 µM

Looked up above:
Entry for O=C(NC1CC1)C1CC(=O)N(c2cccc(Cl)c2Cl)C1 (centres undefined) under Potency: inconclusive: 23.1 µM [inhibitor, single point]
Entry for OC(CN1CCN(Cc2ccc3c(c2)OCO3)CC1)c1c[nH]c2ccccc12 (centres undefined) under Potency: active: 13 µM
Entry for Oc1cccc2c(NC(=S)Nc3ccc(SC(F)F)cc3)cccc12 under Potency: inactive

(further entries)

SMILES | Potency
Cc1ccc(CN=c2c([N+](=O)[O-])nn(-c3cccc(C)c3)n2O)cc1 | inconclusive: 16.4 µM [activator, partial curve]
COc1nc(OC)nc(N2CCC(NC(=O)C(Cc3cccc(OC)c3OC)NC(C)=O)CC2)n1 (centres undefined) | inactive
NC(=O)C1CCN(C2=C(NS(=O)(=O)c3ccc(Cl)cc3)C(=O)c3ccccc3C2=O)CC1 | inconclusive: 20.6 µM [inhibitor, single point]
COc1ccc(S(=O)(=O)N2Cc3ccccc3CC2C(=O)Nc2nccs2)cc1 (centres undefined) | inconclusive: 14.6 µM [activator, partial curve]
CC1=CC(=C(C#N)c2nc3ccccc3s2)C=C(C)N1CC1CCCO1 (centres undefined) | inconclusive: 29.1 µM [inhibitor, single point]
CCOCCCNC(=O)c1ccc2c(c1)OCO2 | inconclusive: 18.4 µM [activator, partial curve]
COc1ccc(CCNc2cc(C)nc3c(-c4ccccc4)c(C)nn23)cc1OC | active: 20.6 µM
CCCOc1ccc(C(=O)N2CCCc3ccccc32)cc1 | inactive
O=C(N/N=C/c1cc(Cl)ccc1O)C(=O)Nc1ccccc1OC(F)(F)C(F)F | inconclusive: 4.11 µM [inhibitor, partial curve, poor fit]
CCC(Oc1ccccc1)C(=O)Nc1ccccc1C(=O)N1CCCCC1 (centres undefined) | inconclusive: 16.4 µM [inhibitor, partial curve]
O=C(COC(=O)c1cc[n+]([O-])cc1)Nc1ccc2c(c1)OCCO2 | inconclusive: 8.2 µM [activator, partial curve, poor fit]
Cc1cc(C(=O)CSc2n[nH]c(N)n2)c(C)n1-c1ccc2c(c1)OCO2 | inactive
CCn1c(SCC(=O)NCCc2ccccc2)nnc1-c1cccs1 | inactive
CCOC(=O)N1CCN(c2nc(-c3ccco3)cc(C(F)(F)F)n2)CC1 | inconclusive: 18.4 µM [inhibitor, partial curve, poor fit]
O=C(O)c1cccc(NC(=S)NC(=O)c2cccc(OCc3ccccc3)c2)c1 | inconclusive: 18.3 µM [activator, partial curve]
CCOC(=O)COc1ccc(S(=O)(=O)c2ccc(OCC(=O)OCC)cc2)cc1 | inactive
CC(=O)Nc1ccc(NC(=O)c2ccc(S(=O)(=O)N(C)c3ccccc3)cc2)cc1 | inconclusive: 29.1 µM [inhibitor, partial curve, poor fit]
COc1cccc(CN2CCN(C(=O)c3cccc4ccccc34)CC2)c1 | inactive
O=C1CCCc2nc3c(cc21)C(O)Oc1c-3ccc2ccccc12 (centres undefined) | inconclusive: 2.31 µM [activator, full curve]
Cc1ccc(S(=O)(=O)N2CCN(C(=O)C3CSC4(C)CCC(=O)N34)CC2)cc1C (centres undefined) | inconclusive: 4.11 µM [activator, partial curve, poor fit]
Cc1nn(C)cc1/C=C/C(=O)c1ccccc1 | inconclusive: 5.8 µM [activator, partial curve]
CCOc1ccc(CC(=O)Nc2ccc(S(=O)(=O)Nc3cc(C)on3)cc2)cc1OCC | inconclusive: 29.1 µM [activator, single point]
CCOc1cc(C(=O)Nc2ccc(S(=O)(=O)NC3=NCCCCC3)cc2)cc(Br)c1OC | inconclusive: 11.6 µM [inhibitor, partial curve, poor fit]

SMILES | Potency
CCOC(=O)c1c(C)[nH]c(C(=O)OC(C)C(=O)Nc2ccccc2OC)c1C (centres undefined) | inconclusive: 23.1 µM [inhibitor, partial curve]
O=C(NCCS(=O)(=O)N1CCN(c2ccccc2)CC1)c1ccc(Br)o1 | inactive
COc1cc2c(cc1OC)C1=NC(=O)CN1C(SCc1ccc(C)cc1)=N2 | inconclusive: 9.2 µM [inhibitor, partial curve]
COc1cc(OC)cc(C(=O)OC(C)C(=O)NC2CCCc3ccccc32)c1 (centres undefined) | inactive
COC(=O)c1c(-c2cccs2)csc1NC(=O)CN1CCOCC1 | inconclusive: 16.4 µM [inhibitor, single point]
Cc1ccc(-c2nc3ccc([N+](=O)[O-])cc3[nH]2)cc1 | inconclusive: 0.82 µM [activator, partial curve, poor fit]
CCOC(=O)N1CCC(NC(=O)c2cc(C(=O)Nc3cccc(C(F)(F)F)c3)ccc2CO)CC1 | active: 8.2 µM
COc1ccc(/C(N)=C/C(=O)C(C)(C)C)cc1 | inconclusive: 20.6 µM [activator, partial curve]
O=[N+]([O-])c1cc([N+](=O)[O-])c2oc(-c3ccccc3)c(Br)c2c1O | inconclusive: 18.3 µM [inhibitor, partial curve]
COc1ccc(CN2CCN(CCCc3ccccc3)C(CCO)C2)cc1OC (centres undefined) | inactive
CC(=O)Nc1nnc(SCC(=O)c2ccc(F)cc2)s1 | inconclusive: 23.1 µM [activator, single point]
CCCCOC(=O)N1CCOCCOCCN(C(=O)OCCCC)CCOCCOCC1 | inconclusive: 16.4 µM [inhibitor, single point]
O=C1OC(c2ccc(Cl)cc2)=N/C1=C\C=C\c1ccco1 | inactive
Cc1ccc(CNc2ncnc(N)c2[N+](=O)[O-])cc1 | inconclusive: 6.51 µM [inhibitor, single point]
CCOc1ccccc1NC(=O)Nc1cc(S(=O)(=O)N(C)C)ccc1C | inconclusive: 14.6 µM [activator, partial curve, poor fit]
O=C(O)c1cccc(NC(CNS(=O)(=O)c2ccc(Cl)cc2)c2ccccc2)c1 (centres undefined) | inactive
O=C(CCCN1C(=O)/C(=C\c2ccccc2)SC1=S)Nc1ccc(O)cc1C(=O)O | inconclusive: 20.6 µM [activator, single point]
Cc1ccc(S(=O)(=O)N(C)C)cc1NC(=O)CSc1nnnn1-c1ccc(O)cc1 | inconclusive: 16.4 µM [inhibitor, single point]
Nc1ccc2nc(CCCCCCc3nc4ccc(N)cc4[nH]3)[nH]c2c1 | inactive
O=C(CCC(=O)Nc1ccccc1Cl)NNC(=O)NC1CCCCC1 | inconclusive: 29.1 µM [activator, partial curve, poor fit]
CCn1c(CC(=O)Nc2cccc(OC)c2)nnc1SCC(=O)N1CCN(c2ccccc2)CC1 | inconclusive: 10.3 µM [inhibitor, partial curve, poor fit]
COc1ccc(N2CC(O)=C(c3nc(C)cs3)C2=N)cc1 | inconclusive: 32.6 µM [inhibitor, partial curve, poor fit]
Cc1c(C(=O)O)[nH]c2c1C(=O)CC(c1ccc(C(C)(C)C)cc1)C2 (centres undefined) | inconclusive: 23.1 µM [activator, single point]

Among those listed so far, these have bromine:
SMILES | Potency
CCOc1cc(C(=O)Nc2ccc(S(=O)(=O)NC3=NCCCCC3)cc2)cc(Br)c1OC | inconclusive: 11.6 µM [inhibitor, partial curve, poor fit]
O=C(NCCS(=O)(=O)N1CCN(c2ccccc2)CC1)c1ccc(Br)o1 | inactive
O=[N+]([O-])c1cc([N+](=O)[O-])c2oc(-c3ccccc3)c(Br)c2c1O | inconclusive: 18.3 µM [inhibitor, partial curve]
